# Library screening results

Protein sequences, listed by entry. Tags and fused reporters are not part of them.
UniProt E9BF75, entry or part of it: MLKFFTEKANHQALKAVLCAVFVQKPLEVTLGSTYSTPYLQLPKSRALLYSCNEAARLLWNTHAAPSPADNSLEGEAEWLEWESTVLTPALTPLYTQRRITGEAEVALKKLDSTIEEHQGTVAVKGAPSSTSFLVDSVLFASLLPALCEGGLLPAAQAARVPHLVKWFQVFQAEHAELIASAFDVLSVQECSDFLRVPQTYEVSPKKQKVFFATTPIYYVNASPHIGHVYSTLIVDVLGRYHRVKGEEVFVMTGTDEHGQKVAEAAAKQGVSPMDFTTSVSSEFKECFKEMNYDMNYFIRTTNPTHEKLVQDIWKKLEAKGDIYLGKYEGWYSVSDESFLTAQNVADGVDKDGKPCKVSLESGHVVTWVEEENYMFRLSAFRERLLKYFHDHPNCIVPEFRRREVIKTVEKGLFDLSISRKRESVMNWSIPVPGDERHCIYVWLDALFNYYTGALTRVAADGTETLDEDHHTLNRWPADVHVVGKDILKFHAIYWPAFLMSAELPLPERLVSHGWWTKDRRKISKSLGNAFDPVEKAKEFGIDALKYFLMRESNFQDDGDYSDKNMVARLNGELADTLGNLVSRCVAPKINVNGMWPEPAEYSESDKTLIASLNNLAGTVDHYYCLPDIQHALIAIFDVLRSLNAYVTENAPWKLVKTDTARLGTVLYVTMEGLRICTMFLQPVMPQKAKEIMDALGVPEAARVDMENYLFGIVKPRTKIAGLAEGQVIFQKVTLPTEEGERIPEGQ

All values are in %. The record does not define 0% and 100%; most values in the screen are far below 50% and negative numbers occur (in some assays of this library far below -100). The compounds are a random part of those screened. A dash means the value is not listed here; it may have been measured.

Mtb heat-shock: 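Assay on Mycobacterium tuberculosis, filed only as a heat shock assay from Cornell; the read-out is not stated. The concentration is filed as 10 mM, unlikely as a test dose, so the dose is not known. The record gives no direction; compounds that gave an IC50 in retests scored well above the rest, so higher reads as stronger inhibition. Size under these conditions: about 69,000 compounds, about 930 of them at 50% or above in at least one test.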
LdMetRS: 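Methionyl-tRNA synthetase (putative), Leishmania donovani (UniProt E9BF75). Primary screen of methionyl-tRNA synthetase; the read-out is not stated. The test concentration is not given. Values are per cent inhibition. Size under these conditions: about 68,000 compounds, about 24 of them at 50% or above in at least one test.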
Mtb growth Cornell: 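Whole-cell assay for inhibitors of Mycobacterium tuberculosis growth, labelled Cornell in the record; the read-out is not stated. The concentration is filed as 10 mM, unlikely as a test dose, so the dose is not known. Higher means stronger inhibition (inferred from two other growth screens of the library). Of about 53,000 compounds tested this way, about 900 (1.7%) reached 50% or more in at least one test.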

Compound | Mtb heat-shock | LdMetRS | Mtb growth Cornell
Br.O=C(CN(C1=NCCCC1)c1ccccc1)c1ccccc1 | -38.94% | - | -16.62%
CC(C)[C@H](NC(=O)NC1CCS(=O)(=O)C1)C(=O)NCc1cccnc1 (some centres not stated) | -16.55% | 6.224% | -
CCOCC(=O)N(Cc1ccco1)c1ccc(OC)c(F)c1 | -7.408% | 16.54% | -
O=C(C1CCC2(CCN(CC3CC3)CC2)O1)N1CCCC1.O=C(O)C(F)(F)F (configuration not stated) | -10.22% | - | -
CNC(=O)c1cnc2n1CCN(C(=O)Cc1ccccn1)C2 | 7.433% | 8.271% | -34.88%
CNc1ccnc(NCC(=O)Nc2cc(C)ccc2OC)n1 | 27.79% | 12.28% | -15.75%
COc1nc2ccccc2cc1CN1CCCC(CNC(C)=O)C1 (configuration not stated) | 10.73% | 12.2% | 6.935%
[H][C@]12CCN(C(=O)CC(C)C)CC[C@@]1([H])S(=O)(=O)N(CC(=O)N(C)C)C2 | 23.78% | - | -6.715%
Cc1cc(N2CCc3c(nc(C(C)C)n3C)C2)nc(N)n1 | 17.1% | 10.6% | 6.203%
O=C(Cc1cccs1)N1CC(c2nc(-c3cnccn3)no2)C1 | 13.06% | 9.353% | -3.037%
COc1cccc(CNC2CCSC2)c1OC (configuration not stated) | 6.563% | 6.599% | -
CSc1ccc(NC(=O)NCC2CCCO2)cc1F (configuration not stated) | 4.914% | 6.7% | 13.93%
Cc1cc(CN2CCN(CC(O)c3ccc4c(c3)OCO4)CC2)no1 (configuration not stated) | -7.181% | 10.99% | -
O=S1(=O)CCCN(Cc2ccccc2OCC(F)(F)F)CC1 | -10.14% | 4.735% | -
CCc1nc(CN2CCOC(CNc3cccnn3)C2)cs1 (configuration not stated) | 31.13% | 15.38% | -2.678%
CCN1CCN(C(=O)COCc2cccc(OC)c2)CC1 | -15.96% | 16.94% | -
Cc1nc(C2CCCN(C(=O)c3sccc3C3CC3)C2)no1 (configuration not stated) | 1.989% | 11.5% | -7.462%
CN1CCOC(CNCC(=O)NCCC2=CCCCC2)C1 (configuration not stated) | -9.782% | 5.307% | -25.45%
COc1nccnc1-c1cccc(-c2ccn(CC3COCCO3)n2)c1 (configuration not stated) | -10.15% | 15.33% | 14.38%
O=C(NCc1ccccc1)N1C[C@H]2CCN[C@H]2C1 | - | -1.12% | -
COc1cc(CNCC(O)c2ccccc2F)cc2c1OCO2 (configuration not stated) | -7.417% | 20.11% | -
c1ccn(Cc2noc3c2CN(Cc2ccsc2)CC3)c1 | - | -6.767% | -
CC(C)Cc1nc(CN2CCN(CC(O)c3ccccc3)CC2)no1 (configuration not stated) | -1.776% | 16.33% | 13.21%
CCN(CC1CCOC1)C(=O)NCc1nnc2n1CCC2 (configuration not stated) | -0.8295% | 20.34% | 14.02%
COc1ccccc1[S+]([O-])CC(=O)NCc1cc(F)cc(F)c1 (configuration not stated) | 18.02% | 13.92% | -
CC(C)c1nccn1C(C)C(=O)N1CCN(c2cnccn2)CC1 (configuration not stated) | -16.56% | 16.19% | 12.61%
CC(C)Oc1ccc(Cl)c(C(=O)N2CCN(CCO)CC2)n1 | -8.014% | 12.25% | -23.39%
Cc1cc(C)n2nc(C(=O)N3CCCC4(CCOC4)C3)cc2n1 (configuration not stated) | -4.334% | 4.735% | 10.12%
CC1CCCN(CCCNC(=O)Cc2csc(-c3ccoc3)n2)C1 (configuration not stated) | -1.605% | 3.971% | -8.79%
Cc1nc(CN(C)C2CCN(CC(=O)N(C)CCC#N)C2)no1 (configuration not stated) | 0.8611% | -2.717% | -45.75%
CNc1cc(CCNC(=O)c2cccnc2)nc(-c2ccncc2)n1 | -4.322% | 18.84% | -1.38%
CC(c1ccccc1F)N(C(=O)CSCC(N)=O)C1CC1 (configuration not stated) | -11.1% | 8.108% | 11.51%
Cn1cc(C2(C)CN(C(=O)COc3ccccc3F)CCO2)cn1 (configuration not stated) | -24.5% | 9.041% | -
O=C(NC1CC1)C1CCN(c2nc3nc[nH]c(=O)c3s2)CC1 | -5.493% | 13.35% | 35.16%
CCOCC1CN(c2ncc(F)cn2)Cc2cn(CC)nc21 (configuration not stated) | -8.877% | 8.014% | 22.81%
Cc1nn(C)c(C)c1CN(C)S(=O)(=O)c1c(C)n[nH]c1C | -14.73% | 12.78% | -
[H][C@]12CCN(C(=O)c3ccco3)[C@@]1([H])CC[C@H](COCC1CCOCC1)O2 | -27.71% | - | -37.04%
Cc1nc(CN2CCCC(NCc3ccc4ccccc4c3)C2)no1 (configuration not stated) | -23.51% | 12.82% | -37%
CNc1ncc(CN(C)c2nccc(CCC(F)(F)F)n2)cn1 | 34.81% | 9.574% | 50.32%
CO[C@H]1CN(C(=O)c2ccc(-c3cc[nH]n3)cc2)CC[C@H]1N | 8.344% | 11.46% | -17.54%
CCn1nc(C)c2nc(C(C)C)nc(NCCCn3cccn3)c21 | 3.212% | 21.36% | -
c1cc(CN2CCCC(c3noc(C4CC4)n3)C2)no1 (configuration not stated) | 24.02% | 11.11% | 4.306%
Cc1ncc(C(=O)N2CCCC(C(=O)CCc3ccccc3)C2)s1 (configuration not stated) | -7.87% | 4.438% | -4.318%
OCCN1CCN(Cc2cn(-c3ccccc3)nn2)CC1 | -18.34% | 12.09% | -10.52%
COCCN1CCC(c2nc3c([nH]2)CC(C)(C)CNC3=O)CC1 | -8.401% | 14.61% | -13.75%
Cc1ccc(CN2CCc3nc(C(C)C)nc(O)c3CC2)s1 | -2.527% | 3.675% | 2.747%
Cn1ncc2c1CCCN(C(=O)C1CCCC1)C2 | 2.823% | 12.11% | 10.97%
CC(C)Cc1noc(C2CCCN(C(=O)CCc3cnn(C)c3)C2)n1 (configuration not stated) | -5.526% | -29.28% | -
O=C(NCCn1ccnc1-c1cc2n(n1)CCNC2)c1ccncc1 | -26.43% | 15.33% | -
CCC[C@H]1CN(C(=O)Cn2ccccc2=O)C[C@@H]1NS(C)(=O)=O | -1.393% | -0.7752% | -16.92%
Cc1ccccc1CSCCn1nc2ccccn2c1=O | 18.11% | 9.722% | -
O=C(O)C(F)(F)F.c1cnn(Cc2cn3c(n2)CN(Cc2nccs2)CC3)c1 | -0.7533% | - | 5.74%
CNC(=O)CN1CCC(NC(=O)Cc2ccccc2OC(C)C)CC1 | -12.6% | 20.72% | -
COc1ccccc1OCc1cc(C(=O)N2CCN(C(C)=O)CC2)n[nH]1 | 6.776% | 16.85% | 8.597%
CCOCc1nc(N2CCCC2)sc1C(=O)NCc1ccco1 | -6.808% | 5.96% | -
CNC(=O)C1Cn2ccnc2C2(CCN(Cc3ccncc3)CC2)O1.O=C(O)C(F)(F)F.O=C(O)C(F)(F)F.O=C(O)C(F)(F)F (configuration not stated) | -2.036% | - | 6.034%
CN(C)S(=O)(=O)c1ccc(CNC(=O)C2CC(=O)N(C(C)(C)C)C2)cc1 (configuration not stated) | -1.299% | 17.45% | 10.62%
Cc1cc(C2CCCN2Cc2ccn(C)c(=O)c2)no1 (configuration not stated) | 11.45% | 11.66% | 1.477%
COc1ccc(CNCc2ccc(N3CCCCC3)nc2)cc1OC | 15.77% | 12.27% | 14.36%
[H][C@@]12CC(=O)N(CC)[C@@]1([H])CCN2S(=O)(=O)c1ccc(OC)cc1 | -11.79% | - | -
Cc1cc(CC(=O)NC(C)c2ccc(OCC3CC3)c(F)c2)n[nH]1 (configuration not stated) | 4.835% | 7.311% | 9.231%
CN(Cc1nc2ccccc2c(=O)[nH]1)C1CC(=O)N(C2CC2)C1=O (configuration not stated) | 51.11% | 12.53% | -
COC(=O)CN(C)C1CCc2ccccc21 (configuration not stated) | 3.275% | 18.37% | -
C[S+]([O-])c1nncn1CC(=O)c1ccc(OC(F)F)cc1 (configuration not stated) | 27.46% | 12.1% | -
CCOc1ncccc1C(=O)N1CCCCC1c1nccs1 (configuration not stated) | -1.749% | 13.73% | 15.22%
Fc1cnc(N2CCOC3(CCN(Cc4cccs4)CC3)C2)nc1 | - | -3.297% | -
O=C(O)C(F)(F)F.O=C(O)C(F)(F)F.[H][C@@]12COC[C@@H](C(=O)NCc3ccccn3)[C@]1([H])CN(C1CCOCC1)C2 | 0.9957% | - | -2.944%
COC1CCN(C(=O)C2CCCC2)CC(=O)N(C)c2ccccc21 (configuration not stated) | -20.26% | 5.205% | -8.876%
CCn1cc(S(=O)(=O)N2CCCC3(CC=CNC3=O)C2)cn1 (configuration not stated) | 15.59% | 15.22% | -2.879%
CCC(C)c1noc(C2CCN(C(=O)c3ccccn3)CC2)n1 (configuration not stated) | -6.213% | -16.13% | -14.93%

9 of the entries, repeated:

| Compound | Mtb heat-shock | LdMetRS | Mtb growth Cornell |
|---|---|---|---|
| `CC(C)Cc1noc(C2CCCN(C(=O)CCc3cnn(C)c3)C2)n1` (configuration not stated) | -5.526% | -29.28% | - |
| `O=C(O)C(F)(F)F.O=C(O)C(F)(F)F.[H][C@@]12COC[C@@H](C(=O)NCc3ccccn3)[C@]1([H])CN(C1CCOCC1)C2` | 0.9957% | - | -2.944% |
| `Fc1cnc(N2CCOC3(CCN(Cc4cccs4)CC3)C2)nc1` | - | -3.297% | - |
| `Cc1ccc(CN2CCc3nc(C(C)C)nc(O)c3CC2)s1` | -2.527% | 3.675% | 2.747% |
| `O=C(C1CCC2(CCN(CC3CC3)CC2)O1)N1CCCC1.O=C(O)C(F)(F)F` (configuration not stated) | -10.22% | - | - |
| `OCCN1CCN(Cc2cn(-c3ccccc3)nn2)CC1` | -18.34% | 12.09% | -10.52% |
| `Cc1ncc(C(=O)N2CCCC(C(=O)CCc3ccccc3)C2)s1` (configuration not stated) | -7.87% | 4.438% | -4.318% |
| `Cc1cc(CN2CCN(CC(O)c3ccc4c(c3)OCO4)CC2)no1` (configuration not stated) | -7.181% | 10.99% | - |
| `COc1ccc(CNCc2ccc(N3CCCCC3)nc2)cc1OC` | 15.77% | 12.27% | 14.36% |

Measurements from “University of Dundee, Small-Polar-MMV Screening Library” (2021), ChEMBL document CHEMBL3988442.